One series relates to ELF2. As to the kind of experiment: EMSA. The following applies: 135 or 270 ng protein; EMSA: 10X binding buffer (composition not given), glycerol, poly(dI-dC), 5 nM labeled oligo, 135 or 270 ng recombinant protein or 2.5-5 ug nuclear lysate; commercial protein; label: 5' IRDye700. (In general: In EMSA bound probe runs differently from free probe, usually more slowly.)
Series [1] deals with ELF2 in PANC-1 nuclear extract (human (PANC-1)) (UniProt Q15723). Description: EMSA supershift. Particulars: ELF2 antibody, band lost; EMSA: 10X binding buffer (composition not given), glycerol, poly(dI-dC), 5 nM labeled oligo, 135 or 270 ng recombinant protein or 2.5-5 ug nuclear lysate; protein in an extract; label: 5' IRDye700.
The next series concerns the target T1, JunB (UniProt P17275).
T1 sequence (looked up, limits assumed): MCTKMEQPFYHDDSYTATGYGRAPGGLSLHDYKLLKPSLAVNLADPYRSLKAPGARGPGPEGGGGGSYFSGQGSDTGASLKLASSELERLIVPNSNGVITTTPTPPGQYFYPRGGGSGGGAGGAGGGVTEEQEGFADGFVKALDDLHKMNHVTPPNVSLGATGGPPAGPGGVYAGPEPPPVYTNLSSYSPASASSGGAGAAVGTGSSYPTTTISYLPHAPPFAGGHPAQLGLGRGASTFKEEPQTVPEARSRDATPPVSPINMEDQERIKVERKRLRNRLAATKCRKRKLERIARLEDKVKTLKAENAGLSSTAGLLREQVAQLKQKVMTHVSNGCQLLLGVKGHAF
As to the kind of experiment: EMSA. The following applies: 135 or 270 ng protein, EMSA: 10X binding buffer (composition not given), glycerol, poly(dI-dC), 5 nM labeled oligo, 135 or 270 ng recombinant protein or 2.5-5 ug nuclear lysate, commercial protein, label: 5' IRDye700.

Protein sequences, listed by entry. Tags and fused reporters are not part of them. Lines headed by an entry give the natural chain unless they say otherwise; changes in a name come on top.
UniProt Q15723: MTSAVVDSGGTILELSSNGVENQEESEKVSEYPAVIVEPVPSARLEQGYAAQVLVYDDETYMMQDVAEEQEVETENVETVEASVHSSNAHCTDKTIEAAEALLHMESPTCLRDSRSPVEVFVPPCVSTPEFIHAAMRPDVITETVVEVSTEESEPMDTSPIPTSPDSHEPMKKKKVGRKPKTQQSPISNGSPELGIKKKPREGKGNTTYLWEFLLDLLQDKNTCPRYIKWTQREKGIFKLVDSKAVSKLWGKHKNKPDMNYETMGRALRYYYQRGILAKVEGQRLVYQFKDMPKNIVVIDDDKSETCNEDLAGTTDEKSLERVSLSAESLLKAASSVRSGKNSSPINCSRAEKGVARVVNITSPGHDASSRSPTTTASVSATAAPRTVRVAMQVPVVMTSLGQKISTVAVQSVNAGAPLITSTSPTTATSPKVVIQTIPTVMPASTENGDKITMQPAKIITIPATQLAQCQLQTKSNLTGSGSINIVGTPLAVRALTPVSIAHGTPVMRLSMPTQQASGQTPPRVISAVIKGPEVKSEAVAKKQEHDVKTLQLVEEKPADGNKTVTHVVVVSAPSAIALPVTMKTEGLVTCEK
UniProt P17535: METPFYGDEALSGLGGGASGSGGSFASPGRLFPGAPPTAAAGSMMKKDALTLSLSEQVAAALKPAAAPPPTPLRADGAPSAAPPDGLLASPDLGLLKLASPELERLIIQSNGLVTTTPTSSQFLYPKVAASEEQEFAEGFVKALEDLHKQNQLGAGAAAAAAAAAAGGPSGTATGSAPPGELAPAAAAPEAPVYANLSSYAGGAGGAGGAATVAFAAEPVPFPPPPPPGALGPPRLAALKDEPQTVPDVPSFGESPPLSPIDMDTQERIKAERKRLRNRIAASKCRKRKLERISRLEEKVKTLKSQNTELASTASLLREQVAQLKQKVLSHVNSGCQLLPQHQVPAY

The target in a further series is JunD (UniProt P17535). Description: EMSA. The following applies: 135 or 270 ng protein, EMSA: 10X binding buffer (composition not given), glycerol, poly(dI-dC), 5 nM labeled oligo, 135 or 270 ng recombinant protein or 2.5-5 ug nuclear lysate, commercial protein, label: 5' IRDye700.
Series [2] addresses JunD in TPA-stimulated HeLa nuclear extract (human (HeLa)) (UniProt P17535). Description: EMSA supershift. The following applies: JunD antibody; EMSA: 10X binding buffer (composition not given), glycerol, poly(dI-dC), 5 nM labeled oligo, 135 or 270 ng recombinant protein or 2.5-5 ug nuclear lysate; protein in an extract; label: 5' IRDye700.
The target in series [3] is JunB in TPA-stimulated HeLa nuclear extract (human (HeLa)) (UniProt P17275). Description: EMSA supershift. Particulars: JunB antibody; EMSA: 10X binding buffer (composition not given), glycerol, poly(dI-dC), 5 nM labeled oligo, 135 or 270 ng recombinant protein or 2.5-5 ug nuclear lysate; protein in an extract; label: 5' IRDye700.

The exact form of at least one protein or probe is not confirmed. For part of these data: A weaker result is weaker than the reference pair of the same experiment. For part of these data: At least one verdict rests on a figure or table, not on a statement of the authors. For part of these data: Tags and fusion partners may be left off the protein sequences shown. For part of these data: Where cells or extracts were used, other partners may take part.

On to “CTTCCCAGAGGAGGAAGATGGCGGGGCCTGG (double strand) [rs13303327 ALT (A, protective)]”, for which the binding result (in the series on ELF2; in series [1]) was “binds” each time.
On to “AGTCACCGGTGACTCGGGCCGGCCAGAGTTT (double strand) [rs13303160 REF (G, risk)]”, for which the binding result with JunB and with JunD was “binds more weakly” in each case.
On to “CTTCCCAGAGGAGGAGGATGGCGGGGCCTGG (double strand) [rs13303327 REF (G, risk)]”, for which the binding result with ELF2 was “binds more weakly”.
Consider “AGTCACCGGTGACTCAGGCCGGCCAGAGTTT (double strand) [rs13303160 ALT (A, protective)]”, for which the binding result (with JunB (also supershift); with JunD (also supershift); in series [2]; in series [3]) was “binds” each time.

Values taken from article PMC12044007.
